Experimental data taken from paper PMC5871718 (Cell, 2018).
These are yes or no findings as the source states them, for the method shown. Binding seen in cells or lysates may run through a third protein. Here binding means that the protein was enriched with, or labelled near, the bait; the list need not be complete.

The chains behind the UniProt entries cited, without tags or fusion partners. Residues count along the entry.
UniProt Q4ZG55: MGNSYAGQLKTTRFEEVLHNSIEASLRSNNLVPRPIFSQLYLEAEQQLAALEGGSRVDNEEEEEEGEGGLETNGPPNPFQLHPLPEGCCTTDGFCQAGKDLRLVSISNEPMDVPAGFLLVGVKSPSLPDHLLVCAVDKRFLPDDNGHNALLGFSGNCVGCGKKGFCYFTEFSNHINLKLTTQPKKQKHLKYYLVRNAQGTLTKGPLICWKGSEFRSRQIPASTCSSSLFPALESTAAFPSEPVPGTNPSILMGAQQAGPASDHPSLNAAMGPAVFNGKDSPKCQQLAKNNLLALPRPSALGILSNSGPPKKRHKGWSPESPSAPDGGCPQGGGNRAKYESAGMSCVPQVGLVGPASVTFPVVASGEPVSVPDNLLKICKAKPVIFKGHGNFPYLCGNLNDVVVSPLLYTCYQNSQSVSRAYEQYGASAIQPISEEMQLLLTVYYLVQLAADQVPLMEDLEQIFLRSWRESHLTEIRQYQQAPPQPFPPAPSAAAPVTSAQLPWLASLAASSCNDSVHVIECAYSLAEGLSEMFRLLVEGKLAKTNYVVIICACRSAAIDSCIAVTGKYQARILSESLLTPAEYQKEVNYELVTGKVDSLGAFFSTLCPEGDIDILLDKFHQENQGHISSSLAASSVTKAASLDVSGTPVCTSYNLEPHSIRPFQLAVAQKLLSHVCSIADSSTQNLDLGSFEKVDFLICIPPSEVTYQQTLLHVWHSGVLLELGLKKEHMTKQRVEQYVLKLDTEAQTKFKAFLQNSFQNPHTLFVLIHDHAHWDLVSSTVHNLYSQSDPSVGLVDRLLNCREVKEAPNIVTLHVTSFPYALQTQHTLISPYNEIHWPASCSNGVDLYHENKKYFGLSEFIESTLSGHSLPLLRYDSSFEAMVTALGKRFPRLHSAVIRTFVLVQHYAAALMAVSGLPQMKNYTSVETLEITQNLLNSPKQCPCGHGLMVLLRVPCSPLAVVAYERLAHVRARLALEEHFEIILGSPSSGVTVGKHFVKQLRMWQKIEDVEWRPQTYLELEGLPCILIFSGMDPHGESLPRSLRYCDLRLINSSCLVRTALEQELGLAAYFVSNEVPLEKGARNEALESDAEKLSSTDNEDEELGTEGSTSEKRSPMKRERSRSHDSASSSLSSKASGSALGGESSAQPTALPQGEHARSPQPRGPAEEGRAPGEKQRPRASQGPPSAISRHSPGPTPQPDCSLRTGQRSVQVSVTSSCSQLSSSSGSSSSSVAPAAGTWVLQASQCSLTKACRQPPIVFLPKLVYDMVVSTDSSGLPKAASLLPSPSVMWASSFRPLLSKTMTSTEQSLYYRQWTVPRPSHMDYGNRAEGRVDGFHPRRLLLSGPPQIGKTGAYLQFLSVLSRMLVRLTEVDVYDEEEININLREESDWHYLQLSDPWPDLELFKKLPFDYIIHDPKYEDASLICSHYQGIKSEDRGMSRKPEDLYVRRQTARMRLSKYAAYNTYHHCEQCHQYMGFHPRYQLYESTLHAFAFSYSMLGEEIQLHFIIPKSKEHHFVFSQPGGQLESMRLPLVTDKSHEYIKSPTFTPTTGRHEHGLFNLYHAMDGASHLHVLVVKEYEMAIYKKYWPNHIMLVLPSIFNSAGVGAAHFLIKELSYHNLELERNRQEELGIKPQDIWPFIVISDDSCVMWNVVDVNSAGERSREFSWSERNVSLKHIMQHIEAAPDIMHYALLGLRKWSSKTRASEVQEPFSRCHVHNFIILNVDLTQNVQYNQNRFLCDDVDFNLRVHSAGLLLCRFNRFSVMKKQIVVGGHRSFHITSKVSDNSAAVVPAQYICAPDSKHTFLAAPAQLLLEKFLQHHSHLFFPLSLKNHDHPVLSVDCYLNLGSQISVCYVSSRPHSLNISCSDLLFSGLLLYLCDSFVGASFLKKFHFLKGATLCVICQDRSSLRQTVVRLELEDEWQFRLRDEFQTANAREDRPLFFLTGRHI
UniProt P14625, residues 22-803: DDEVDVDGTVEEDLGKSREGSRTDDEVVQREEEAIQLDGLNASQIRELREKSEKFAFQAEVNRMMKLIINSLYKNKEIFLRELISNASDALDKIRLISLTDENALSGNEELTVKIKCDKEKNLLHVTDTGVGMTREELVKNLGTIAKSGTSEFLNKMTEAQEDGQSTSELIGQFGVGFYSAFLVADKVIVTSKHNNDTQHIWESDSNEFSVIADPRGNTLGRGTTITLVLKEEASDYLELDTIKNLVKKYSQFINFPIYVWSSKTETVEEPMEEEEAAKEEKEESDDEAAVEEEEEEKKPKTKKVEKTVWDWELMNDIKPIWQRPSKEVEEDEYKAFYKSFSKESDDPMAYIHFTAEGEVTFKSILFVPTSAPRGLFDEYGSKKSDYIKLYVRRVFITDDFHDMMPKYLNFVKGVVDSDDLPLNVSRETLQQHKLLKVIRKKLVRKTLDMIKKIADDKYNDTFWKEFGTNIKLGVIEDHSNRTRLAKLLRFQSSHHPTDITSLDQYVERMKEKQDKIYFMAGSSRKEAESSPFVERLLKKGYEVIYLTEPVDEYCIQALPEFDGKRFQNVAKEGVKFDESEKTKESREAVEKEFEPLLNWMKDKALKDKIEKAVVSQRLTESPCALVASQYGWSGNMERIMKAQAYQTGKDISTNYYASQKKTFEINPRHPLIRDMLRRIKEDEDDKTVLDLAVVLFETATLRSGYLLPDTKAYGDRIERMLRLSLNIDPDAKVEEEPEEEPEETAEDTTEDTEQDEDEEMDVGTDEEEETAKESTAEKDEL
UniProt P08238: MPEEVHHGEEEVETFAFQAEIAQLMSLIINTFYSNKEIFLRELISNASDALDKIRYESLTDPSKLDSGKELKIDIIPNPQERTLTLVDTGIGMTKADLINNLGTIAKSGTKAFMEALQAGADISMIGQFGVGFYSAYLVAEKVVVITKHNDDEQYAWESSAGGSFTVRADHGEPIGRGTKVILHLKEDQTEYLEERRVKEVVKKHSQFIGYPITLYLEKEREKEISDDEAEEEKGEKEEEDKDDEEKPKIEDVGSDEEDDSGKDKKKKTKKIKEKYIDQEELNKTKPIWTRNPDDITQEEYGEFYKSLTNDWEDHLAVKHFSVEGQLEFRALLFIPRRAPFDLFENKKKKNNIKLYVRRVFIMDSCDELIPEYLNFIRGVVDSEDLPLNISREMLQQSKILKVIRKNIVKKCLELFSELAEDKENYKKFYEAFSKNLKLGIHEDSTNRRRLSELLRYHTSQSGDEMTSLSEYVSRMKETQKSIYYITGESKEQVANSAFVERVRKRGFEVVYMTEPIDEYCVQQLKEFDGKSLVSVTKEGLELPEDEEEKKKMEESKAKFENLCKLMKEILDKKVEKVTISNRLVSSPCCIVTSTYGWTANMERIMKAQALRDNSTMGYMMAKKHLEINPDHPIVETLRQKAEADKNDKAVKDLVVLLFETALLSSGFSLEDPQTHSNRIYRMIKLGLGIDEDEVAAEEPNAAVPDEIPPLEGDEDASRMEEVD

target: GREB1 (human (endogenous in MCF-7)) (UniProt Q4ZG55); assay: affinity purification with mass spectrometry; co-immunoprecipitation of endogenous GREB1 from MCF-7 cell extract (1 mg protein; 50 mM Tris-HCl pH 7.5, 150 mM NaCl, 0.8% IGEPAL CA-630) with 10 ug anti-GREB1 or rabbit IgG control, Protein G beads, 4°C; extract pre-incubated 1 h with vehicle (DMSO) or 10 uM 17-AAG; read-out LC-MS/MS, fold change relative to isotype IgG control

binding, binds:
HSP90B1 (from UniProt P14625 22-803), HSP90AB1 (from UniProt P08238 1-724), HSP90AA1 (from UniProt P07900 1-732)
